Experimental data reported in paper PMC9470683.
Results are given in words; binding and its absence hold for the method and conditions named. Binding seen in cells or lysates may run through a third protein. Some entries that bind do so weakly or less than the wild type.

By UniProt entry, the sequences of proteins in these tests, tags left out.
UniProt Q9NQS7: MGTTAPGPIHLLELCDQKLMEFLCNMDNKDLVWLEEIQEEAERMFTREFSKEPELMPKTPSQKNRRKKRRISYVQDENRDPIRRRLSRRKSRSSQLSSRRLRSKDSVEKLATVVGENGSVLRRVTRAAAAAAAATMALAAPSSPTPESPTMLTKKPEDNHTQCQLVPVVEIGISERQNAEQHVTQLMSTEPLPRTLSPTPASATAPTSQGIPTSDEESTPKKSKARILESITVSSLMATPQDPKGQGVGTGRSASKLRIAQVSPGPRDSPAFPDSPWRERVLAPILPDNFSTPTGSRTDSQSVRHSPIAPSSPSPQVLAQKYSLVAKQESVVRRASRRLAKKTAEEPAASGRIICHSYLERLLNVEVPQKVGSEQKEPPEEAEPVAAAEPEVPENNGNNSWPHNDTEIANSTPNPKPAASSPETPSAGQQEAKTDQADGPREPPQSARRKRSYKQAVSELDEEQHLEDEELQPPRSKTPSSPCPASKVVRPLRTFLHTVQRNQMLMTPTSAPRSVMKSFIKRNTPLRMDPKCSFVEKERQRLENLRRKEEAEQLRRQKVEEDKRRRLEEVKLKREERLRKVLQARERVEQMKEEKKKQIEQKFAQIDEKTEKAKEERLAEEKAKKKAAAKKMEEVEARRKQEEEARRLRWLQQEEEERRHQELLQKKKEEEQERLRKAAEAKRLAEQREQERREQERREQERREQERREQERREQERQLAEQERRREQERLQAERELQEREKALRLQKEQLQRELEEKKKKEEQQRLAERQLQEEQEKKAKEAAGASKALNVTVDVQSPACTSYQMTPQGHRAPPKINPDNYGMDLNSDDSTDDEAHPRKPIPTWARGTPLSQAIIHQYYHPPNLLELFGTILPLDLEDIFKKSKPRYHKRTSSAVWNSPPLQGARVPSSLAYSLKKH
UniProt O15392: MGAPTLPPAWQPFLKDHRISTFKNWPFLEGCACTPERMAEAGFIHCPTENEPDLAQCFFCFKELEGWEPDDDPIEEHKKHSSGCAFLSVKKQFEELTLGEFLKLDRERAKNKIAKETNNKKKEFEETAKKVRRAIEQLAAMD

Experiments:
[1] = target: Aurora B kinase (human (endogenous in RPE-1)) (UniProt Q96GD4); experiment: co-IP; IP with Aurora B antibody (BD 611082) or mouse IgG isotype control from metaphase-arrested mAID-Sp1 RPE-1 cells, with or without auxin-induced Sp1 degradation before mitotic entry; immunoblot for CPC members
[2] = target: T1, Aurora B kinase (human (endogenous in RPE-1)), Q96GD4; experiment: as above; conditions: remark: other sources report otherwise
T1 chain: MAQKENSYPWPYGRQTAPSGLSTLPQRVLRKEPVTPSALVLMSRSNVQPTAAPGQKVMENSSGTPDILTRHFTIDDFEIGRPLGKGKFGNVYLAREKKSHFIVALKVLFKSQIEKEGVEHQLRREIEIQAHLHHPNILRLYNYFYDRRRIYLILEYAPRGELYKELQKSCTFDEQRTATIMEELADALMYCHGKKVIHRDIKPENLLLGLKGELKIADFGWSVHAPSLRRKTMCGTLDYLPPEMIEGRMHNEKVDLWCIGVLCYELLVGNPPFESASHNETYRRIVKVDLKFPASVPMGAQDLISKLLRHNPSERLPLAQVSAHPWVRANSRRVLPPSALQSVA

In the case of INCENP (from UniProt Q9NQS7 1-918), the binding [1] is reported as “binds”.

With survivin (from UniProt O15392 1-142) the binding [1] was “binds”.

B1: Borealin, Q53HL2 1-280 (protein)
chain: MAPRKGSSRVAKTNSLRRRKLASFLKDFDREVEIRIKQIESDRQNLLKEVDNLYNIEILRLPKALREMNWLDYFALGGNKQALEEAATADLDITEINKLTAEAIQTPLKSAKTRKVIQVDEMIVEEEEEEENERKNLQTARVKRCPPSKKRTQSIQGKGKGKRSSRANTVTPAVGRLEVSMVKPTPGLTPRFDSRVFKTPGLRTPAAGERIYNISGNGSPLADSKEIFLTVPVGGGESLRLLASDLQRHSIAQLDPEALGNIKKLSNRLAQICSSIRTHK
For B1, the binding [2] was “binds”.
